Article PMC11315935, “Multi-layered heterochromatin interaction as a switch for DIM2-mediated DNA methylation” (Nature Communications, 2024)
For at least one entry, the source does not settle the construct or the ends of the probe. For part of these data: A weaker result is weaker than the reference pair of the same experiment. For part of these data: At least one verdict rests on a figure or table, not on a statement of the authors.

The chains behind the UniProt entries cited, without tags or fusion partners.
UniProt Q3Y3Z1, entry or part of it: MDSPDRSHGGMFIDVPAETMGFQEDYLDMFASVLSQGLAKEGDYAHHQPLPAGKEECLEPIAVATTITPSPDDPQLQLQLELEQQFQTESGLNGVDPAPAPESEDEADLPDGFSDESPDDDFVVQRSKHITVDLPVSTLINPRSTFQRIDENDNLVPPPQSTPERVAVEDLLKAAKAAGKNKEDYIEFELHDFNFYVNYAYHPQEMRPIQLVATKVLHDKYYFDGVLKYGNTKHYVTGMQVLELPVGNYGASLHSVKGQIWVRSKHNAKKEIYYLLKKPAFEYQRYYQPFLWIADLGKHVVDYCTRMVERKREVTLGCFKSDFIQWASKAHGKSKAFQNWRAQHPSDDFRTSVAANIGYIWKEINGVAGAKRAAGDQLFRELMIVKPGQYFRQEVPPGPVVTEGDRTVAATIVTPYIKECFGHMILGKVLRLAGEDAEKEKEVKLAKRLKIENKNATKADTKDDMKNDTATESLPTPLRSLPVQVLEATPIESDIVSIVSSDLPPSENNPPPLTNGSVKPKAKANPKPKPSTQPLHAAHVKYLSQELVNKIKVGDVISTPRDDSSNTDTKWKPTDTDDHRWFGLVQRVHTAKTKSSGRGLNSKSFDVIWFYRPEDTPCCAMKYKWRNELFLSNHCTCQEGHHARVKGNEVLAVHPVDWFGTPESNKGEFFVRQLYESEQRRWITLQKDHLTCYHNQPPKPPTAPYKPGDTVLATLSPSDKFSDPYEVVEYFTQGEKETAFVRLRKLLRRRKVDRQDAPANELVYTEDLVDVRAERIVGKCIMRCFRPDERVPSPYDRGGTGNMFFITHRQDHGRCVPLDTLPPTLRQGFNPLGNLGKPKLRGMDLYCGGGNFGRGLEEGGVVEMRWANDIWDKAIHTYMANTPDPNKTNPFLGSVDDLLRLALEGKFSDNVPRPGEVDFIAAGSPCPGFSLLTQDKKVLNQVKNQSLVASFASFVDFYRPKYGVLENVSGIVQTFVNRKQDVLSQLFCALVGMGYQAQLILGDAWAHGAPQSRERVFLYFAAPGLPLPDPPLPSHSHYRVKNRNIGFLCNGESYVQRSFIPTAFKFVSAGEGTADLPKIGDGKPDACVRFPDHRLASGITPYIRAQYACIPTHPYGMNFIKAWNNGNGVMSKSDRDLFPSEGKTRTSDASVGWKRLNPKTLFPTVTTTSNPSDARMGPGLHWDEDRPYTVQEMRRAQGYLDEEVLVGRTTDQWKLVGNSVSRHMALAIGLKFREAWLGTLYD
UniProt Q3Y3Z1, entry or part of it W581A: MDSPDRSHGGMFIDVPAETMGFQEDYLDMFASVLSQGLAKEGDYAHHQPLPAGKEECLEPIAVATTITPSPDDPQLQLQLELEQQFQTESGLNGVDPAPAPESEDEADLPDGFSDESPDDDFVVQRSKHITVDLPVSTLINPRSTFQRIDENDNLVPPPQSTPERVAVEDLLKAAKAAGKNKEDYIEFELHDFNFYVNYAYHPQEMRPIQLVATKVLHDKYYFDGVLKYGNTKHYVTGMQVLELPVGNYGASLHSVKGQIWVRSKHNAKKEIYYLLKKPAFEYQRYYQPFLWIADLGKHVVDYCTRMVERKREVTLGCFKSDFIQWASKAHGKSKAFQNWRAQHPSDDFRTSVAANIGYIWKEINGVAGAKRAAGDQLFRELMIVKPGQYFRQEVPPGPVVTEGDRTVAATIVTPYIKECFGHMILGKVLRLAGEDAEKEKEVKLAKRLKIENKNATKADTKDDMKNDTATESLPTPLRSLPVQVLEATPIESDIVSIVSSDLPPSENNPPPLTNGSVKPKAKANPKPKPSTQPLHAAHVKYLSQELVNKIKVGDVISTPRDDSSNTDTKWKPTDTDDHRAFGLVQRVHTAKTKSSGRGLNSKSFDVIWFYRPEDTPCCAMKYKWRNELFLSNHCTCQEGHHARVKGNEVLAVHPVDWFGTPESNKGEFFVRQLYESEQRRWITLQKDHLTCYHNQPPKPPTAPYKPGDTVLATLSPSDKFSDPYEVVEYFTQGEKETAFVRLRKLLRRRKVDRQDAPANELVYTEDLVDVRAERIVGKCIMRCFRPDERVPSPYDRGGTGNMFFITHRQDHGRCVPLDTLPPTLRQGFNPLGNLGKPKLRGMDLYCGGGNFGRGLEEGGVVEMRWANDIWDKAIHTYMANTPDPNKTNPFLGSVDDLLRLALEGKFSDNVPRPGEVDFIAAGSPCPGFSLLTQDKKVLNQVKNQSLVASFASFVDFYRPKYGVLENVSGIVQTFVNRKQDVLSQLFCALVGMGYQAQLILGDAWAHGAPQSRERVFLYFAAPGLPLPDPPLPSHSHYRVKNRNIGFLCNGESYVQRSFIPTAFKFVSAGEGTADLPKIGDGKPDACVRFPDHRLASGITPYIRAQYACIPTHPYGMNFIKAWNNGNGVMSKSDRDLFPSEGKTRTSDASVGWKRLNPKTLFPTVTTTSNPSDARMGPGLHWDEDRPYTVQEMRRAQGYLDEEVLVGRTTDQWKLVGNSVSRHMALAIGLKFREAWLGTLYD
UniProt Q3Y3Z1, entry or part of it W261A: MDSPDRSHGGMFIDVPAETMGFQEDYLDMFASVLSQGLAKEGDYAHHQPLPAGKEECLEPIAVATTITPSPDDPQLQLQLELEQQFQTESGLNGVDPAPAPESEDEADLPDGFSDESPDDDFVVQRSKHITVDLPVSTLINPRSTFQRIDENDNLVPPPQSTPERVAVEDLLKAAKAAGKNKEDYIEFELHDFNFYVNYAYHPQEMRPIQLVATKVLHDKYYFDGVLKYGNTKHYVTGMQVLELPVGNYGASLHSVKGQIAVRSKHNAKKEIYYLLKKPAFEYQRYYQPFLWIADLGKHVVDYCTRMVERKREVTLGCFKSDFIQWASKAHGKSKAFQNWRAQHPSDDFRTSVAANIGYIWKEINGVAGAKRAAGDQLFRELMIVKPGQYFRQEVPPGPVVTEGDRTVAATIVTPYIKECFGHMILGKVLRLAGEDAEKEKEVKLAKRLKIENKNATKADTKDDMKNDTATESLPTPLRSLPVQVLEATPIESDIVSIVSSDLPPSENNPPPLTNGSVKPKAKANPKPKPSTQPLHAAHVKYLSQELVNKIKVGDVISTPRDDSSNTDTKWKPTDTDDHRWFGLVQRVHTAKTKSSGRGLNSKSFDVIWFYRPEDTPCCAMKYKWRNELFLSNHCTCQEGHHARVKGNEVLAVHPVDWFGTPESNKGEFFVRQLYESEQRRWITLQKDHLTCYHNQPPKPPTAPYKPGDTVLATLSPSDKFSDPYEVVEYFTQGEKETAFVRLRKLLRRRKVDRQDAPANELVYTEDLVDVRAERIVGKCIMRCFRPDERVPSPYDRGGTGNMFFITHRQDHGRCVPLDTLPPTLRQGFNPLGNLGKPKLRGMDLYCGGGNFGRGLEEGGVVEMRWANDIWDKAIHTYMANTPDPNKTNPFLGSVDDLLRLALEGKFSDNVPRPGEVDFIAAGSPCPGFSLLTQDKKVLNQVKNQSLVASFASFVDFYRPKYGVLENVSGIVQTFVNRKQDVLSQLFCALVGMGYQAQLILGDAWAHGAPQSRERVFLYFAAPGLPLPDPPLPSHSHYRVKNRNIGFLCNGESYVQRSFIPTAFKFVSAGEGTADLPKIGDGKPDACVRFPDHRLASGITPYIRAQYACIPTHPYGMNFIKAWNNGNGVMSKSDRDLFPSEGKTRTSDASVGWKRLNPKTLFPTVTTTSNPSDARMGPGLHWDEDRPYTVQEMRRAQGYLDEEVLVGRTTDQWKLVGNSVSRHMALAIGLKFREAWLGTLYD

Key:
Assay in all cases: EMSA
Conditions in all cases: H3K9me3 peptide 0.8 uM; EMSA: 0.1 uM DNA, 0-0.4 uM DIM2, 20 mM Tris-HCl pH 8.0, 75 mM NaCl, 10% glycerol, 5 mM DTT, 2% NP-40; gel at 4 C, Tris-Glycine pH 8.6; recombinant protein; residues 1-1242; protein details: His6-MBP removed by TEV; label: none (SYBR Gold stain)
[1] = molecular target: DIM2 (1-1242) (Neurospora crassa) (UniProt Q3Y3Z1)
[2] = molecular target: DIM2 W581A (Neurospora crassa) (UniProt Q3Y3Z1)
[3] = molecular target: DIM2 W261A (Neurospora crassa) (UniProt Q3Y3Z1)

**Q.** Does “ATTATTAATCTAAATTTA (double strand) [CHH DNA 18-mer duplex]” bind [1]?
**A.** binds

**Q.** Does “ATTATTAATCTAAATTTA (double strand) [CHH DNA 18-mer duplex]” bind [2]?
**A.** binds more weakly

**Q.** Does “ATTATTAATCTAAATTTA (double strand) [CHH DNA 18-mer duplex]” bind [3]?
**A.** binds more weakly
